PubChem BioAssay AID504764 – Drosophila RNAi Screening Center – 2011
The screen tested about 22,000 reagents; shown is a random part of those that have a named target and a result. Of all reagents, 403 (1.9%) were called active. 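Unnormalised raw counts per well; ratio z-scores behind the hit calls and whether each hit raises or lowers signal are not deposited.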 A plus sign joins genes that one reagent is predicted to hit. Not stated in the record: the amount of reagent.

Assay: 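Genes whose knock-down alters Notch-dependent transcription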 (primary screen)
Cells: Drosophila Kc167 cells
Knock-down reagent: long dsRNA against Drosophila genes
Time to read-out: about 5 days (4 days dsRNA, then 24 h after transfection)
Conditions: transfection of constitutively active membrane-tethered Notch lacking the extracellular domain, read 24 h later
Detection: 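Firefly luciferase from an E(spl)m3 reporter with active Notch, plus control-promoter and uninduced reporter wells for normalisation; unnormalised counts, duplicate wells a and b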
Direction: induced reporter light, run 1, well a and induced reporter light, run 1, well b: higher = more light from the Notch target reporter with active Notch; control promoter light, run 1, well a and control promoter light, run 1, well b: higher = more light from the viral control promoter (cell number, transfection, viability); uninduced reporter light, run 1, well a: higher = more light from the Notch target reporter without active Notch
Call rule: 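Hit if the duplicate-averaged log2 ratio of induced to control-promoter light gives a plate-wise z beyond ±2, or induced to uninduced beyond ±1.8; weak-control or discordant-duplicate wells dropped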
Meaning of the calls: active = modifier hit (raised or lowered Notch signal); inactive = not a hit

| target | DRSC id | induced reporter light, run 1, well a | induced reporter light, run 1, well b | control promoter light, run 1, well a | control promoter light, run 1, well b | uninduced reporter light, run 1, well a | outcome |
| --- | --- | --- | --- | --- | --- | --- | --- |
| Ccp84Af | DRSC12591 | 56665 | 92255 | 85235 | 96165 | 5785 | inactive |
| CG10959 | DRSC17769 | 2.26e5 | 2.09e5 | 3.07e5 | 3.37e5 | 14760 | inactive |
| CG16986 | DRSC08502 | 1.29e5 | 1.22e5 | 1.87e5 | 1.49e5 | 7185 | inactive |
| CG6938 | DRSC10752 | 1.74e5 | 1.43e5 | 2.51e5 | 2.65e5 | 9575 | inactive |
| AcCoAS | DRSC11477 | 1.95e5 | 1.99e5 | 2.72e5 | 2.05e5 | 16900 | inactive |
| AcCoAS | DRSC11603 | 1.37e5 | 1.34e5 | 1.37e5 | 1.60e5 | 10685 | inactive |
| AcCoAS | DRSC22850 | – | – | – | – | – | inactive |
| CG33514 | DRSC08471 | 3.62e5 | 3.50e5 | 5.26e5 | 3.81e5 | 13220 | inactive |
| CG33514 | DRSC08472 | 3.08e5 | 2.13e5 | 2.13e5 | 2.03e5 | 11000 | inactive |
| CG12016 + Dpm2 | DRSC08224 | 56800 | 50175 | 22485 | 8785 | 11270 | inactive |
| BORCS6 | DRSC08514 | 1.63e5 | 1.96e5 | 2.58e5 | 2.17e5 | 9240 | inactive |
| eIF4E1 | DRSC11342 | 39395 | 32455 | 26575 | 13100 | 3020 | inactive |
| CG14744 | DRSC06480 | 1.81e5 | 1.52e5 | 2.06e5 | 2.03e5 | 14935 | inactive |
| Ugt302C1 | DRSC15353 | 1.06e5 | 1.35e5 | 80455 | 79340 | 9045 | inactive |
| CG34284 | DRSC14773 | 1.94e5 | 1.57e5 | 2.26e5 | 2.52e5 | 14828 | inactive |
| prc | DRSC11385 | 1.02e5 | 1.22e5 | 2.03e5 | 1.25e5 | 6580 | inactive |
| Tap42 | DRSC02967 | 1.46e5 | 1.54e5 | 1.72e5 | 2.03e5 | 12390 | inactive |
| CG17075 | DRSC00483 | 2.08e5 | 1.93e5 | 2.37e5 | 2.52e5 | 17735 | inactive |
| LamC | DRSC07453 | 1.41e5 | 1.24e5 | 1.34e5 | 1.32e5 | 9710 | inactive |
| TM4SF | DRSC04661 | 1.87e5 | 2.16e5 | 1.76e5 | 1.63e5 | 15140 | inactive |
| CG18335 | DRSC06723 | 89520 | 1.41e5 | 1.58e5 | 1.41e5 | 9625 | inactive |
| Coq5 | DRSC19849 | 1.42e5 | 1.28e5 | 2.93e5 | 2.50e5 | 9625 | inactive |
| Or67c | DRSC11242 | 2.11e5 | 1.62e5 | 1.97e5 | 1.58e5 | 8335 | inactive |
| CG6362 | DRSC07413 | 1.03e5 | 1.05e5 | 1.17e5 | 1.67e5 | 9955 | inactive |
| CG2076 | DRSC19832 | 96175 | 97445 | 1.19e5 | 1.26e5 | 7060 | inactive |
| CG13023 | DRSC09454 | 2.15e5 | 1.89e5 | 2.74e5 | 2.26e5 | 16388 | inactive |
| CG13023 | DRSC09903 | 1.86e5 | 1.55e5 | 2.09e5 | 1.83e5 | 9190 | inactive |
| CG15221 | DRSC19659 | 1.27e5 | 1.61e5 | 2.10e5 | 2.60e5 | 9365 | inactive |
| CG5853 | DRSC01103 | 1.54e5 | 1.27e5 | 1.40e5 | 1.40e5 | 8635 | inactive |
| CG5853 | DRSC02906 | 2.34e5 | 2.45e5 | 2.09e5 | 2.28e5 | 16328 | inactive |
| CG8087 | DRSC16375 | 2.11e5 | 2.32e5 | 2.19e5 | 2.36e5 | 17600 | inactive |
| Inx2 | DRSC18783 | 1.84e5 | 2.10e5 | 2.67e5 | 2.16e5 | 15070 | inactive |
| CG12934 | DRSC06247 | 43315 | 31795 | 25320 | 29185 | 6200 | inactive |
| CG3108 | DRSC18280 | 2.15e5 | 1.91e5 | 2.15e5 | 1.96e5 | 16475 | inactive |
| Ir76b | DRSC10831 | 1.08e5 | 95845 | 1.03e5 | 86945 | 11020 | inactive |
| CG12910 | DRSC06225 | 2.06e5 | 1.83e5 | 1.66e5 | 1.50e5 | 16815 | inactive |
| CG14013 | DRSC02344 | 2.09e5 | 1.37e5 | 1.95e5 | 1.56e5 | 10040 | inactive |
| CG7886 | DRSC16333 | 2.58e5 | 2.82e5 | 2.37e5 | 1.79e5 | 18485 | inactive |
| CG3061 | DRSC15460 | 2.11e5 | 2.30e5 | 2.17e5 | 2.33e5 | 15478 | inactive |
| CG12219 | DRSC17829 | 1.65e5 | 1.59e5 | 2.41e5 | 2.53e5 | 13130 | inactive |
| ATPsynE | DRSC15476 | 1.15e5 | 1.27e5 | 72200 | 65280 | 7610 | inactive |
| CG8952 | DRSC20133 | 82280 | 86410 | 1.38e5 | 1.03e5 | 5860 | inactive |
| CG7362 | DRSC16236 | 2.03e5 | 1.92e5 | 1.85e5 | 1.94e5 | 14270 | inactive |
| Cont | DRSC12149 | 1.15e5 | 85575 | 65125 | 80395 | 5720 | inactive |
| cdm | DRSC16213 | 2.56e5 | 2.56e5 | 2.76e5 | 3.25e5 | 16700 | active |
| CG34347 | DRSC14047 | 65265 | 74720 | 1.02e5 | 1.08e5 | 6478 | inactive |
| CG34347 | DRSC14305 | 45120 | 42410 | 54375 | 59455 | 9675 | inactive |
| CG34347 | DRSC15104 | 44285 | 42400 | 34170 | 34815 | 3150 | inactive |
| CG34347 | DRSC15105 | 5735 | 5180 | 9510 | 8965 | 2925 | inactive |
| Gnpnat | DRSC15405 | 1.58e5 | 1.63e5 | 1.97e5 | 2.16e5 | 12210 | inactive |
